Results are percentages, as filed. The record does not define 0% and 100%; most values in the screen are far below 50% and negative numbers occur (in some assays of this library far below -100). The compounds are a random part of those screened. A dash means the value is not listed here; it may have been measured.

The chains behind the UniProt entries cited, without tags or fusion partners.
UniProt E9BF75, entry or part of it: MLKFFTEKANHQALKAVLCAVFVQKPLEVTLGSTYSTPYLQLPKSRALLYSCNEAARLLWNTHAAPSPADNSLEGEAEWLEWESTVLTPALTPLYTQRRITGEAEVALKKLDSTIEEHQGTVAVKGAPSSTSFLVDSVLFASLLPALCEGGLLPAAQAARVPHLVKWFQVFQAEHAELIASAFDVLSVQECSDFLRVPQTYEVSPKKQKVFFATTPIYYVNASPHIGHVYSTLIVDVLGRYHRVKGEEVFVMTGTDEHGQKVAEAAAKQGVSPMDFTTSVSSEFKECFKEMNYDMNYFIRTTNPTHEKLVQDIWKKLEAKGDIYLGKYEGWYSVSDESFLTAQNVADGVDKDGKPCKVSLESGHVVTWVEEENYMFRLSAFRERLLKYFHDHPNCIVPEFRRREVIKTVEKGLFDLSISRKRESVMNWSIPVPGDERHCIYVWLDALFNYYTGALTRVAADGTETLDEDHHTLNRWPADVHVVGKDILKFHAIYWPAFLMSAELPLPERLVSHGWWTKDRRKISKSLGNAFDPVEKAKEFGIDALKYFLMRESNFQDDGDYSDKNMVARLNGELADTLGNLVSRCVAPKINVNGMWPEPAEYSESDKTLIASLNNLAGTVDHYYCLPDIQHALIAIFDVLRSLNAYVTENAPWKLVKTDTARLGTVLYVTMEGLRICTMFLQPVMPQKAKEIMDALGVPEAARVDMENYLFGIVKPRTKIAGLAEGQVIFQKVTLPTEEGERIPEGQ

Mtb heat-shock: 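Assay on Mycobacterium tuberculosis, filed only as a heat shock assay from Cornell; the read-out is not stated. The concentration is filed as 10 mM, unlikely as a test dose, so the dose is not known. The record gives no direction; compounds that gave an IC50 in retests scored well above the rest, so higher reads as stronger inhibition. Size under these conditions: about 69,000 compounds, about 930 of them at 50% or above in at least one test.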
LdMetRS: 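Primary screen of methionyl-tRNA synthetase; the read-out is not stated. Target: Methionyl-tRNA synthetase (putative), Leishmania donovani (UniProt E9BF75). The test concentration is not given. The values are filed as inhibition. Size under these conditions: about 68,000 compounds, about 24 of them at 50% or above in at least one test.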
Mtb growth Cornell: 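Whole-cell assay for inhibitors of Mycobacterium tuberculosis growth, labelled Cornell in the record; the read-out is not stated. The concentration is filed as 10 mM, unlikely as a test dose, so the dose is not known. The record gives no direction; compounds strong in two other growth screens of this library score well above the rest, so higher reads as stronger inhibition. Of about 53,000 compounds tested this way, about 900 (1.7%) reached 50% or more in at least one test.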

| compound | Mtb heat-shock | LdMetRS | Mtb growth Cornell |
|---|---|---|---|
| `Fc1ccc(C2(CNCC(F)F)CCOC2)cc1` (centres undefined) | -1.851 | 0.8475 | -33.1 |
| `COC(=O)C(NC(=O)Nc1ccc(C(C)=O)cc1)C(C)C` (centres undefined) | 0.7358 | 17.62 | 6.824 |
| `COc1cccc2ccc(CN3CCN(c4ncccn4)CC3)nc12` | -10.6 | 16.49 | 36.6 |
| `O=C(CCNc1ncccn1)N1CCCC(n2ccnc2)C1` (centres undefined) | 0.6216 | 21.53 | - |
| `O=C(O)C(F)(F)F.O=C(O)C(F)(F)F.[H][C@@]12CCN(Cc3ccsc3)[C@]1([H])CC[C@H](C(=O)N1CCN(C)CC1)O2` | -16.92 | - | 17.11 |
| `Cc1ccc(C(=O)N2CC[C@H](N3CCOCC3)[C@H](CCCO)C2)cc1O` | -13.51 | 10.27 | 15.84 |
| `O=C(NC1CCS(=O)(=O)C1)N1CCN(c2cnccn2)CC1` (centres undefined) | 12.54 | 13.02 | 10.85 |
| `COCCn1cc(CCC(=O)Nc2c(C)nn(C)c2C)c2ccccc21` | -22.94 | 0.5391 | -31.56 |
| `O=C(O)C(F)(F)F.[H][C@@]12CCN(C(=O)N3CCCC3)C[C@]1(COc1ncccc1F)CCO2` | -25.81 | - | -3.093 |
| `Cc1ccc(NC2CCN(C(=O)CCc3cscn3)CC2)nn1` | -17.32 | 6.111 | -30.91 |
| `c1cnc(N2CCCC(NCc3cccc4c3OCCO4)C2)nc1` (centres undefined) | - | 9.15 | - |
| `Cc1ccc(CNC(C)(C)c2noc(C(C)(C)C)n2)o1` | 3.487 | 19.68 | -0.4607 |
| `[H][C@@]12CCCO[C@]1([H])[C@H](NC(=O)CC1CC1)CN(C(=O)c1ccsc1)C2` | 11.19 | - | 3.159 |
| `[H][C@@]12C[C@@H](O)CN1C[C@H](Cc1ccccc1)N(Cc1ccsc1)C2` | -8.014 | - | 57.45 |
| `O=C(CC1COCCN1)N1CCC2(CCc3ccccc32)CC1` (centres undefined) | -13.42 | 2.542 | -32.27 |
| `CN(CCc1ccccn1)C(=O)c1cnn(-c2ccccc2F)c1N` | 25.3 | 10.28 | 0.8627 |
| `NCC(=O)N1CCCC(c2ccnc(Nc3cnccn3)n2)C1` (centres undefined) | - | 15.82 | - |
| `[H][C@@]12CCN(C(=O)COC)C[C@@]1([H])O[C@@H](c1nnc(C3CC3)o1)C2` | 5.74 | - | -36.03 |
| `Cc1c(C(=O)N2CCC2(C)C)nnn1-c1cccc2cccnc12` | 9.835 | 14.84 | -34.05 |
| `OCC(O)CSCc1ccc(Cl)cc1Cl` (centres undefined) | -16.82 | 13.64 | 0.2395 |
| `c1ccc(OCc2nnc3n2CCN(Cc2ccco2)C3)nc1` | - | -9.774 | - |
| `CC(c1ccccn1)N(C)Cc1ccc(CCC(C)(C)O)cc1` (centres undefined) | -12.39 | 11.5 | - |
| `[H][C@]12CC[C@]([H])(CN(c3ncccn3)C1)N(C(=O)c1cccnc1SC)C2` | -5.405 | - | -13.74 |
| `COCC1CC2(CCN(CC3CC3)CC2)CN1Cc1ccccn1.O=C(O)C(F)(F)F.O=C(O)C(F)(F)F` (centres undefined) | 19.76 | - | -6.11 |
| `CN1CCC(NN2CCN(C)CC2)CC1` | -21.91 | 5.867 | - |
| `Cc1cccc(CN2C[C@@H]3COC[C@]3(CNC(=O)C3CCC3)C2)c1` | - | 15.25 | - |
| `O=C(NCCc1nnc2n1CCC2)NCC1(c2ccccc2)CC1` | -26.42 | 5.96 | - |
| `CCN(C)S(=O)(=O)N1CCCC(c2nc(-c3ccccc3)c[nH]2)C1` (centres undefined) | 14.48 | 12.73 | -4.787 |
| `COc1c2ccc(C(=O)NCCCn3ncccc3=O)cc2nn1C` | 0.07403 | 10.79 | -44.83 |
| `Cc1nc2ccccc2nc1CN1CCCCC1Cn1cccn1` (centres undefined) | 5.148 | 14.09 | 7.315 |
| `Cn1c(C(F)(F)F)nn(CCNC(=O)CSCc2ccccc2)c1=O` | 13.31 | 12.32 | -6.208 |
| `CCN1CCN(c2ccc(CNC(=O)c3cc(C)on3)cn2)CC1` | -13.59 | 23.99 | -0.07071 |
| `CCCc1cc(C(=O)N(CC)Cc2ccncc2)[nH]n1` | -21.88 | 17.63 | 18.79 |
| `CCCNC(=O)C1CCCN(c2ccc3nncn3n2)C1` (centres undefined) | 20.07 | 3.38 | 0.6833 |
| `CN(CC(=O)N1CC(C)(C)[C@](O)(C2CC2)C1)Cc1ccncc1` | 9.993 | 8.992 | 4.603 |
| `COc1ccc(OC)c(CN(C)c2nc3c(cnn3C)c(=O)[nH]2)c1` | -10.66 | 1.955 | -0.4031 |
| `O=C(c1cnc(C2CC2)nc1)N1CCC(N2CCC(O)CC2)CC1` | -2.22 | 1.6 | - |
| `Cc1cc(CN2CCN(C(=O)CCc3cccc(F)c3F)CC2)on1` | 18.93 | 6.884 | - |
| `O=C(c1ccsc1)N1CCC2(CCN(Cc3ccccn3)C2=O)C1` (centres undefined) | - | 18.4 | - |
| `CN1CCCC[C@@H]2[C@H]1[C@@H](c1ccccc1)CCN2C(=O)c1ccccn1` | - | 9.896 | - |
| `OCCO[C@H]1C[C@@H](O)C12CCN(Cc1nc(C(F)(F)F)no1)CC2` | 1.101 | 10.18 | - |
| `Cc1ncccc1Oc1nccnc1C1CCN(C(C)C)CC1` | 1.974 | 16.1 | 2.69 |
| `Cc1ccc(CN(Cc2ncc[nH]2)C2CC(C)(C)NC(C)(C)C2)o1` | - | -0.565 | - |
| `CNC(=O)C1Cn2ccnc2C2(CCN(Cc3nccs3)CC2)O1.O=C(O)C(F)(F)F.O=C(O)C(F)(F)F` (centres undefined) | -22.49 | - | -13.2 |
| `CC(CCc1ccc(O)cc1)NC1CCN(C(=O)C(C)C)CC1` (centres undefined) | -20.51 | 17.18 | 25.43 |
| `CC(NC(=O)N1CCC[C@H]1CO)c1noc(-c2ccccc2)n1` (some centres undefined) | 5.41 | -1.72 | 37.01 |
| `Cc1ccccc1Cc1nc(CSc2nnc(N)n2C)no1` | 4.172 | 16.72 | -13.09 |
| `CN(C)CC(=O)N1Cc2nnn(C)c2C(COCc2ccccn2)C1` (centres undefined) | - | -2.256 | - |

Some entries from above, unchanged:

{"compound": "Cc1cc(CN2CCN(C(=O)CCc3cccc(F)c3F)CC2)on1", "Mtb heat-shock": 18.93, "LdMetRS": 6.884}
{"compound": "Cc1ccccc1Cc1nc(CSc2nnc(N)n2C)no1", "Mtb heat-shock": 4.172, "LdMetRS": 16.72, "Mtb growth Cornell": -13.09}
{"compound": "O=C(CC1COCCN1)N1CCC2(CCc3ccccc32)CC1", "stereo": "centres undefined", "Mtb heat-shock": -13.42, "LdMetRS": 2.542, "Mtb growth Cornell": -32.27}

Data taken from ChEMBL document CHEMBL3988442, “University of Dundee, Small-Polar-MMV Screening Library” (2021).